Results from the supplement of paper PMC6411743.
± gives the standard deviation of the averaged measurements. The list shows a part of the results, in another mix than the full data. Most values lie at the level of the controls, where differences are scatter.

Protein sequences, listed by entry. Tags and fused reporters are not part of them. Lines headed by an entry give the natural chain unless they say otherwise; changes in a name come on top.
UniProt P20336: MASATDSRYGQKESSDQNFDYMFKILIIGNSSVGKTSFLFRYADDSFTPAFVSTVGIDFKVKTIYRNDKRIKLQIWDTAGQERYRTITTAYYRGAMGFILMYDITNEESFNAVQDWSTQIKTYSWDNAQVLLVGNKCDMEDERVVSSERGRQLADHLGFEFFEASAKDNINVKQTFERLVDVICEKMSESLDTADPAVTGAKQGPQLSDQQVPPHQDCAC
UniProt P28331, whole entry: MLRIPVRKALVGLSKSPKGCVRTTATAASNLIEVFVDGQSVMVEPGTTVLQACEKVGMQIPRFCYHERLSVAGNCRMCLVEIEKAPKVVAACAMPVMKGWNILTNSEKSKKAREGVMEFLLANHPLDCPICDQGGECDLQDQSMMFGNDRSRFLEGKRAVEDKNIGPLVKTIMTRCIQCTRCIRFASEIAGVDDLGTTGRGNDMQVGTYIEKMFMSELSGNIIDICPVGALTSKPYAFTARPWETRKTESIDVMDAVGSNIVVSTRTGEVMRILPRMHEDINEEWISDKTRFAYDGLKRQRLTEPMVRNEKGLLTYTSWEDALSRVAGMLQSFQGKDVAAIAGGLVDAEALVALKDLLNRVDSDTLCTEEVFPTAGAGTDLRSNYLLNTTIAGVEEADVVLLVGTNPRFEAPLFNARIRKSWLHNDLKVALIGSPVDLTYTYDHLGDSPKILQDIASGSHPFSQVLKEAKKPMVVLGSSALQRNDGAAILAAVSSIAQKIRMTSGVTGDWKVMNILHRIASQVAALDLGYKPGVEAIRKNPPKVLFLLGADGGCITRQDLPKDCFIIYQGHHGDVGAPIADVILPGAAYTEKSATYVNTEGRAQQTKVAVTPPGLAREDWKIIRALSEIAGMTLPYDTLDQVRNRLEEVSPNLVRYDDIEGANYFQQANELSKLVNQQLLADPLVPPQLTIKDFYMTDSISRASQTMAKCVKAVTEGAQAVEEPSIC
UniProt P19022: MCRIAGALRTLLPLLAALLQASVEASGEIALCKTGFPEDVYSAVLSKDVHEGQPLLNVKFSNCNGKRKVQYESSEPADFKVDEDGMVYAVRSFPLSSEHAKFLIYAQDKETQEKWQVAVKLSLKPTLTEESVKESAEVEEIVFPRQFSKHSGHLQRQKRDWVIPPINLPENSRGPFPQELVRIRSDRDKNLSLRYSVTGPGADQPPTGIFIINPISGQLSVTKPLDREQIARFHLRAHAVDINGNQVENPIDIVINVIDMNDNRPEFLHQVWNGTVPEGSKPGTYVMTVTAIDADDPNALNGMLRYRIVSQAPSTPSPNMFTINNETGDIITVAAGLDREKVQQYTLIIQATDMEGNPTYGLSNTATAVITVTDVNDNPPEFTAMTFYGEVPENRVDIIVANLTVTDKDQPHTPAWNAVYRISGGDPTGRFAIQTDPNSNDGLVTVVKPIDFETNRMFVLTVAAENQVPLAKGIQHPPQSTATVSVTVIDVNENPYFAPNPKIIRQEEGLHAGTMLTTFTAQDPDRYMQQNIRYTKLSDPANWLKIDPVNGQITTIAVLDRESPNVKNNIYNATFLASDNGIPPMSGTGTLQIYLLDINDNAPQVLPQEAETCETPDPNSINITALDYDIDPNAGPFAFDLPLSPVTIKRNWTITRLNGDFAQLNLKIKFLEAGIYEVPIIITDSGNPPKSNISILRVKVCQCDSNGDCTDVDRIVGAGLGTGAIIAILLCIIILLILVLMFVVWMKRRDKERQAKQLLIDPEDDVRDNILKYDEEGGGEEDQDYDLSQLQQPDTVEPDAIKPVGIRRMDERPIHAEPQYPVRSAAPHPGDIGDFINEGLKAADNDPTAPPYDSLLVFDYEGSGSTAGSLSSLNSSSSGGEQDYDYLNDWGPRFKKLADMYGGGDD
UniProt P28702: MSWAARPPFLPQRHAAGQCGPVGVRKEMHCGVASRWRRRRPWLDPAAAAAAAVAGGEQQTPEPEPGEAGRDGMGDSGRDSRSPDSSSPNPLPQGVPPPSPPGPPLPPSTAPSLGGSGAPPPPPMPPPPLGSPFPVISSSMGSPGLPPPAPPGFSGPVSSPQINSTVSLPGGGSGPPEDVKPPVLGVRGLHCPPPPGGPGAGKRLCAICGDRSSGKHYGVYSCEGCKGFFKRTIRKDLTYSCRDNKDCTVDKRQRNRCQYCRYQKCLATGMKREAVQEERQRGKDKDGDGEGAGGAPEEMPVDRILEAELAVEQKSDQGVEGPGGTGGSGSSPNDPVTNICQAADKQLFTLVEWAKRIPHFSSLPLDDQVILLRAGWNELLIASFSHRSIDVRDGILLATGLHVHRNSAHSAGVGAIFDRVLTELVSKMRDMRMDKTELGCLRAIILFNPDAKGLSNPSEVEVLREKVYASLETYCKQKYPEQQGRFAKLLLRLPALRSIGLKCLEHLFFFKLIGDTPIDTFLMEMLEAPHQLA
UniProt P23378: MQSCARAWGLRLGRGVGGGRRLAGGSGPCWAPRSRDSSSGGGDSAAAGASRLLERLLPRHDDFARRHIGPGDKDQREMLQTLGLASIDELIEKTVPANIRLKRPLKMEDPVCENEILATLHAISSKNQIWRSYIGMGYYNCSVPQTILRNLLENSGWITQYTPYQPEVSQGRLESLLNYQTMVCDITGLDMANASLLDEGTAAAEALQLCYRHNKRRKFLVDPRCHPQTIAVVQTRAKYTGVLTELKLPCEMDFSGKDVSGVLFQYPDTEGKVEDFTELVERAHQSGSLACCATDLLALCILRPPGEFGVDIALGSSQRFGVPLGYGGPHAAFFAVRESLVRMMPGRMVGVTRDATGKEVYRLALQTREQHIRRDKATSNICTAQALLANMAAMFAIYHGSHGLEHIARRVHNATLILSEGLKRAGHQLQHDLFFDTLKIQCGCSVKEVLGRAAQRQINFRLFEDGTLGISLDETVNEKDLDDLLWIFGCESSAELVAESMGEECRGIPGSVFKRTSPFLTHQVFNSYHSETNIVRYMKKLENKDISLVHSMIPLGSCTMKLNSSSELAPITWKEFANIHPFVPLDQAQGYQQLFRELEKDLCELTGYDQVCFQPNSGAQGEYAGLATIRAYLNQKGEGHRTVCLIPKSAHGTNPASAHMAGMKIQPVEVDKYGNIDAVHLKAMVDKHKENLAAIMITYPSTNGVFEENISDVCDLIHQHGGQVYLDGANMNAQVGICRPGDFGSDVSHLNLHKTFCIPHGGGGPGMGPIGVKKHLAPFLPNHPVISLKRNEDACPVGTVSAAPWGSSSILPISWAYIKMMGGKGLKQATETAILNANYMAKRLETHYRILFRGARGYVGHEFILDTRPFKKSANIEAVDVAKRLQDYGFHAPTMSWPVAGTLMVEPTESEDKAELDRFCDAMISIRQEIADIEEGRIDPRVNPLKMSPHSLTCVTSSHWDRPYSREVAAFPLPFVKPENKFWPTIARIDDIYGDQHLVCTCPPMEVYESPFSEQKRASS
UniProt P23919: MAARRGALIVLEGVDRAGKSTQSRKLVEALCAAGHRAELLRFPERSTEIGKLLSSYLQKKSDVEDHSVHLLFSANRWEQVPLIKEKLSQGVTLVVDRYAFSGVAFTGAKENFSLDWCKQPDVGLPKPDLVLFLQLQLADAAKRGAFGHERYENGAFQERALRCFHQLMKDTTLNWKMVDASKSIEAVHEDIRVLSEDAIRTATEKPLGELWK
UniProt P32119: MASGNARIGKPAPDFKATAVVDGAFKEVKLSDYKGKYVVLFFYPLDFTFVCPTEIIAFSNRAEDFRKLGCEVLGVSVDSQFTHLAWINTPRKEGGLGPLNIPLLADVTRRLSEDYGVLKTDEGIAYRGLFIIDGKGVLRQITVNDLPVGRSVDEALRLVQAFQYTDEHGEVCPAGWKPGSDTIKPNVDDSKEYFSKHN
UniProt P23368: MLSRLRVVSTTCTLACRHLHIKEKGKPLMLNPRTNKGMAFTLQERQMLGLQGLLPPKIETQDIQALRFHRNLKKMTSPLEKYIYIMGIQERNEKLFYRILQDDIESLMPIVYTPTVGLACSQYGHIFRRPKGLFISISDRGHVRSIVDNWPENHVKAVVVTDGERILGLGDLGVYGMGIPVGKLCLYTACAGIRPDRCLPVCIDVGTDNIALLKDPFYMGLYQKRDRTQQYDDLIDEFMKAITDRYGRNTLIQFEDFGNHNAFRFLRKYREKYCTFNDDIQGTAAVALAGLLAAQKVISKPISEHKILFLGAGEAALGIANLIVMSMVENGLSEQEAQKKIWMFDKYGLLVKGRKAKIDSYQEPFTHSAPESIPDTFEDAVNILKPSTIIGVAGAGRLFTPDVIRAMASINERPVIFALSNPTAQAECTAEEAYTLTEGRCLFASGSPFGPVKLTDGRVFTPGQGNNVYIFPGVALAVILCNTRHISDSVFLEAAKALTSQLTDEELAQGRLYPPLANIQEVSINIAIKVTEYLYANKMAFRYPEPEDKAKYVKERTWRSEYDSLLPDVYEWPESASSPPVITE
UniProt P38646: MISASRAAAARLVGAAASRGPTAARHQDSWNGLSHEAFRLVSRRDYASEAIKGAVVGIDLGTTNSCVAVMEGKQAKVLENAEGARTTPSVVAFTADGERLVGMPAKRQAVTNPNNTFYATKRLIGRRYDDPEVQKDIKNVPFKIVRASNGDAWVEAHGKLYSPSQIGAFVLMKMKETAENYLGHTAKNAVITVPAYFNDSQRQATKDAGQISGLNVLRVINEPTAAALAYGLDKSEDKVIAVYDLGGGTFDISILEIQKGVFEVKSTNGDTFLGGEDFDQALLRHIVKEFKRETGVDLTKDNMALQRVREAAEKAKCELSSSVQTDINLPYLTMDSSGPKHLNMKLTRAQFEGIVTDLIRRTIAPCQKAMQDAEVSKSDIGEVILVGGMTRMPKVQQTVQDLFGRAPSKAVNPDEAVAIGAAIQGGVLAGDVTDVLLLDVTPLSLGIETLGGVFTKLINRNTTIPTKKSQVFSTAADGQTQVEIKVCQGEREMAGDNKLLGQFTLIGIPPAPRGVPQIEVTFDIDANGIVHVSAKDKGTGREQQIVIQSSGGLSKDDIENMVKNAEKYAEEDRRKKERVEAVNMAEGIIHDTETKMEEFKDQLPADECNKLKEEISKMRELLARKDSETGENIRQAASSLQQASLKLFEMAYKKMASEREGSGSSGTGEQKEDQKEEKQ
UniProt P28065: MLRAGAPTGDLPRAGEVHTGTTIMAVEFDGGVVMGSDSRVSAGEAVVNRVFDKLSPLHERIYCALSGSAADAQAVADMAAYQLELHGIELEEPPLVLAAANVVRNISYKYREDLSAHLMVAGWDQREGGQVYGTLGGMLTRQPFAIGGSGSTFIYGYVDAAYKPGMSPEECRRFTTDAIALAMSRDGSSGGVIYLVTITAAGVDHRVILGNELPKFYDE
UniProt P29084: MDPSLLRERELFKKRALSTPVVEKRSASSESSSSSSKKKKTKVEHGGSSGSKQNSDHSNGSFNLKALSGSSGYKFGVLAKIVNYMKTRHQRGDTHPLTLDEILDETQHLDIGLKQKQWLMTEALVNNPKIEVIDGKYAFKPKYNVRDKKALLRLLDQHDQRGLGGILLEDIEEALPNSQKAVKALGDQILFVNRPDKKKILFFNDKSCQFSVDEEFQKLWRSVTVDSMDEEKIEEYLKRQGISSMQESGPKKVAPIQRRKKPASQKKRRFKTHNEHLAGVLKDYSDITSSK
UniProt P28482, whole entry: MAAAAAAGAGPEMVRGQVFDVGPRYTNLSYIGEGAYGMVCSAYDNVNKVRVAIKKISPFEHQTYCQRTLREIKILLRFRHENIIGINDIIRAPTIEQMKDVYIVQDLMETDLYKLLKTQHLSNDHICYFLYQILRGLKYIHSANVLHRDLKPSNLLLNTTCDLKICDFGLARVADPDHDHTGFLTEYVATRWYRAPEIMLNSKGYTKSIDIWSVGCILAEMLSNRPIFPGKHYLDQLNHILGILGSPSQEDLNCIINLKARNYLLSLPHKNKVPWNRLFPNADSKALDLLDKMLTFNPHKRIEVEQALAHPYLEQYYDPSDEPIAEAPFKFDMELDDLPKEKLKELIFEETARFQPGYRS
UniProt P25686: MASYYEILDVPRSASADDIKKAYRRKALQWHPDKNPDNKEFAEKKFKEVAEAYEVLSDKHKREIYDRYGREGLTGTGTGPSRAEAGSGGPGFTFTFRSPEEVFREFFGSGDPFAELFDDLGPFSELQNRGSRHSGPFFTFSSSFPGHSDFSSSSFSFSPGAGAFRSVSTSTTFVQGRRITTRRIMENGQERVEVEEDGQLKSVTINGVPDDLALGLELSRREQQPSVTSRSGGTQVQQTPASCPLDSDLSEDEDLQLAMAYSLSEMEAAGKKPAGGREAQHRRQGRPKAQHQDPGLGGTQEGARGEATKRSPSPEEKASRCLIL
UniProt P30281: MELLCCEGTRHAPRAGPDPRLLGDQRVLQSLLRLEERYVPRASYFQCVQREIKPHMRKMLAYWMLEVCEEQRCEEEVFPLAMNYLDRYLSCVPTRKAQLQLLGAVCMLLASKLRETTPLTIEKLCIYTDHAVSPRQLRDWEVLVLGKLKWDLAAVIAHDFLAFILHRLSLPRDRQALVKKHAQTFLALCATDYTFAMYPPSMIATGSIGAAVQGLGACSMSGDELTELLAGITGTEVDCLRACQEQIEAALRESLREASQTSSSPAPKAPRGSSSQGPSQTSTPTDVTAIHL

Compound: Nc1ncnc2c1ncn2[C@@H]1O[C@H](COP(=O)(O)OP(=O)(O)NP(=O)(O)O)[C@@H](O)[C@H]1O [adenylyl imidodiphosphate]
Assay: NP40-soluble protein abundance relative to vehicle (solubility fold change) (ratio); higher = more soluble protein in presence of AMP-PNP
Summary of the method: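 Each value is a fold change relative to the detergent-processed vehicle, calculated per replicate from vsn-normalised intensities. Jurkat crude lysate received eight concentrations (0.1 to 10 mM) for 10 min at room temperature and 3 min at 37 °C, then was solubilised in 0.8% NP40 with benzonase (60 min, 4 °C). The ultracentrifuged supernatant was TMT-labelled and run by LC-MS/MS in three independent experiments.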

Target | NP40-soluble protein abundance (concentration: 0.1mM) | NP40-soluble protein abundance (concentration: 0.5mM)
CBL (UniProt P22681) | 1 ± 0.018 | 0.995 ± 0.015
UniProt P18615 | 0.971 ± 0.011 | 0.974 ± 0.041
UniProt P19793-2 | 0.992 ± 0.024 | 1.01 ± 0.028
RAB3A (UniProt P20336) | 1.03 ± 0.026 | 1.04 ± 0.035
UniProt P28331 and related entries | 1.01 ± 0.0098 | 0.988 ± 0.017
UniProt P19022 and related entries | 0.97 ± 0.024 | 0.973 ± 0.028
LRPAP1 (UniProt P30533) | 0.968 ± 0.045 | 1.01 ± 0.034
UniProt P28702 and related entries | 0.995 ± 0.023 | 0.988 ± 0.023
GLDC (UniProt P23378) | 0.982 ± 0.039 | 0.961 ± 0.021
DGKA (UniProt P23743) | 1.05 ± 0.025 | 1.03 ± 0.1
DTYMK (UniProt P23919) | 1.013 ± 0.0085 | 0.987 ± 0.017
UniProt P30520 | 0.978 ± 0.017 | 0.973 ± 0.013
PRDX2 (UniProt P32119) | 0.9668 ± 0.0071 | 1 ± 0.035
SLC7A1 (UniProt P30825) | 0.9751 ± 0.0084 | 0.963 ± 0.028
UniProt P21964 and related entries | 0.985 ± 0.047 | 0.961 ± 0.084
ME2 (UniProt P23368) | 1.03 ± 0.047 | 0.979 ± 0.11
SPR (UniProt P35270) | 0.985 ± 0.043 | 1.02 ± 0.014

Target | NP40-soluble protein abundance (concentration: 0.1mM) | NP40-soluble protein abundance (concentration: 0.5mM)
HSPA9 (UniProt P38646) | 0.936 ± 0.079 | 1.01 ± 0.092
HPCAL1 (UniProt P37235) | 0.986 ± 0.019 | 1 ± 0.037
UniProt P28065 and related entries | 0.995 ± 0.048 | 0.964 ± 0.012
GTF2E2 (UniProt P29084) | 0.993 ± 0.041 | 1.03 ± 0.089
UniProt P25685 and related entries | 1.03 ± 0.029 | 1.05 ± 0.035
UniProt P28482 | 1.01 ± 0.022 | 1.02 ± 0.052
DNAJB2 (UniProt P25686) | 0.964 ± 0.02 | 0.955 ± 0.019
SRP14 (UniProt P37108) | 0.988 ± 0.028 | 1.06 ± 0.098
UniProt P36954 | 1.04 ± 0.0041 | 1.03 ± 0.025
UniProt P35658 and related entries | 0.9851 ± 0.0094 | 1.02 ± 0.046
UniProt P30281 and related entries | 1.04 ± 0.015 | 0.9985 ± 0.006
UniProt P31350 and related entries | 0.993 ± 0.027 | 0.951 ± 0.051
UniProt P22830 and related entries | 1.01 ± 0.03 | 0.968 ± 0.055
TCEA1 (UniProt P23193) | 0.995 ± 0.0029 | 1.02 ± 0.032
UniProt P26038 and related entries | 0.938 ± 0.12 | 0.986 ± 0.086
MAT2A (UniProt P31153) | 1 ± 0.043 | 1.02 ± 0.03
SFPQ (UniProt P23246) | 1.02 ± 0.04 | 1.1 ± 0.014

Single values from the results shown:
NP40-soluble protein abundance (concentration: 0.1mM), UniProt P22830 and related entries reads 1.01 ± 0.03
NP40-soluble protein abundance (concentration: 0.5mM), MAT2A (UniProt P31153) reads 1.02 ± 0.03
